Results are given in words; binding and its absence hold for the method and conditions named. In cells and extracts the contact can be indirect. Some entries that bind do so weakly or less than the wild type.

By UniProt entry, the sequences of proteins in these tests, tags left out.
UniProt P21708: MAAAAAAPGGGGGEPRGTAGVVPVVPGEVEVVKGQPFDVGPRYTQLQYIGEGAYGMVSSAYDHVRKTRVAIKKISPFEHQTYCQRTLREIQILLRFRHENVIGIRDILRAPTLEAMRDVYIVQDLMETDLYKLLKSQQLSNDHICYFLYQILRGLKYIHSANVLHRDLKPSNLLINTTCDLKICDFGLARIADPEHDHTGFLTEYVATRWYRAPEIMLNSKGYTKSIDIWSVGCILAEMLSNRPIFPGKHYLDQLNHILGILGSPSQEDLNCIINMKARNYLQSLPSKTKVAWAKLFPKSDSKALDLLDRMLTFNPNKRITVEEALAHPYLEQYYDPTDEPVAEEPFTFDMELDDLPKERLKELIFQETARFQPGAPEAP
UniProt P63086: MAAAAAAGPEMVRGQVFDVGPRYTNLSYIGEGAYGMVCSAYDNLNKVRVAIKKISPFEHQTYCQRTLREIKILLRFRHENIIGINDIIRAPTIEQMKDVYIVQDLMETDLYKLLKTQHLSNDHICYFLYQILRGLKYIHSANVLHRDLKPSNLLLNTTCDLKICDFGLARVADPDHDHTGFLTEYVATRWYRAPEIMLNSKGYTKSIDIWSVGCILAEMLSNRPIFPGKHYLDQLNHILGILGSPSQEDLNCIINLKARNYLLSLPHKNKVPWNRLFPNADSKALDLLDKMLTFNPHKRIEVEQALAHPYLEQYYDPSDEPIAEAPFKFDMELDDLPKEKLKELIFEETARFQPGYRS

The source of these data is paper PMC3283592.

In experiment [1] the target is T1, caveolin-1 (rat (endogenous in A7r5)) (UniProt P41350).
T1 sequence: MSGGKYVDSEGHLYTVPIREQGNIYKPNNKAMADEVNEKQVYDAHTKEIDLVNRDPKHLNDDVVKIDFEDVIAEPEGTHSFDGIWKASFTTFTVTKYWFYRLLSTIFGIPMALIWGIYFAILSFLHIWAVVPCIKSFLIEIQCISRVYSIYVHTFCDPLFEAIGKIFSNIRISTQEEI
Kind of experiment: proximity ligation; Duolink in situ PLA kit (Olink) on fixed A7r5 cells with a caveolin-1 antibody and an ERK1/2 or phospho-ERK1/2 antibody; cells unstimulated or stimulated 10 minutes with DPBA or FCS.

The target of experiment [2] is T1, caveolin-1 (rat (endogenous in A7r5)). The experiment can be described thus: co-IP; A7r5 lysates (0.5% Nonidet-P40 lysis buffer) precipitated with rabbit polyclonal anti-caveolin-1 cross-linked to Protein G-dynabeads, 4°C, 3 hours; blots for phospho-ERK1/2 and total ERK1/2; cells unstimulated or stimulated with DPBA or FCS for 1-60 minutes.

With “extracellular signal regulated kinase 1 (total ERK1) (from UniProt P21708 1-380) (enzyme)”, the binding result in experiment [1] and in experiment [2] was “binds” each time.
As for “extracellular signal regulated kinase 2 (total ERK2) (from UniProt P63086 1-358) (enzyme)”, the binding entry in experiment [1] and in experiment [2] was “binds” in each case.
